US20250136696A1

B1: PR003252 (antibody, human IgG1, kappa, V domains shown)
VH: QVQLVESGGGVVQPGRSLRLSCAASGFTFSNYAMHWVRQVPGKGLEWVALIWYDGSEKYYADSVKGRFTISRDDSKNTLFLQMSSLRAEDTAVYSCVREYSSGWGYFDYWGQGTQVTVSS
VL: DIQMTQSPSTLSASVGDRVTITCRASQSISSWLAWYQQKPGKAPKLLIYKASSLKSGVPSRFSGSGSGTEFTLTISSLQPDDFATYYCLQYNSYYTFGQGTKLEIKR
B2: PR003265 (antibody, human IgG1, kappa, V domains shown)
VH: QVQLVESGGGVVQPGRSLRLSCAASGFTFSTYGLHWVRQAPGKGLEWVAVIWYDESNEYYADSVKGRFTISRDNSKNTLYLQMNSLRAEDTALYYCARLAHDYGGTYFDYWGQGTLVTVSS
VL: EIVMTQSPAILSVSPGERATLSCRASQSISYNLAWYQQKPGQAPRLLIYGASIRATGIPARFSGSGSGTDFTLTISSLQSEDFAVYYCQQYNNWPPWTFGQGTKVEIKR
B3: PR003260 (antibody, human IgG1, kappa, V domains shown)
VH: QVQLVESGGGVVQPGRSLRLPCAASGFTFSRYGMHWVRQAPGKGLEWVADIWYDGSKKYYADSVKGRFTISRDNSKNTLYLQMNSLRAEDTAVYFCTRDGGYSYGPFDYWGQGTLVTVSS
VL: EIVMTQSPATLSVSPGERATLSCRASQSVSSNLAWYQQKPGQAPRLLIYYASTRAPGIPARFSGSESGTEFTLTISSLQSEDFAVYYCQQYNIWPYTFGQGTKLEIKR
B4: PR003262 (antibody, human IgG1, kappa, V domains shown)
VH: B3 VH with P21S, M34I, D50V, D54N, S56R, K57N, A61V, F95Y, T97A
VL: B3 VL with V29F, S31N, Y50G, P56T, E66G, Q89H, Y96L, Q100G, L104V
B5: PR003263 (antibody, human IgG1, kappa, V domains shown)
VH: QVQLVESGGGVVQPGRSLRLSCAASGFTFSYYGLNWVRQAPGKGLEWVAVIWFDGTNKYYADSVKGRFTISRDDSKNTLYLQMNSLRAEDTAVYYCARGYGSGSYYNYVMDAWGQGASVTVSS
VL: B3 VL with Y50G, R54G, P56T, E66G, E70D, N92Y, I93K, Y96L, Q100G, L104V

molecular target: cynomolgus monkey B7-H7 on the cell surface (cynomolgus monkey); experiment: flow cytometry on cells

Row | binding | Binder
1 | binds | B1
2 | binds | B2
3 | binds | B3
4 | binds | B4
5 | binds | B5

Residue numbers refer to the chain shown, from its start. Results are given in words; binding and its absence hold for the method and conditions named. A result given as binding can be weak or reduced; the word gives no strength.
